The record followed here is paper PMC11115362.

The test system of series [1] is E75 DNA-binding domain (rE75) (kuruma shrimp). As to the kind of experiment: EMSA. The note with it: 2 ug protein, 5 ng probe; EMSA: 2 ug rE75, 5 ng biotin probe, 25 C, 20 min, kit binding buffer (Beyotime GS009; composition and pH not given); 6% acrylamide gel, 0.5x TBE; recombinant protein; protein details: 6xHis and pET32a vector tag (rTag); label: biotin (unlabeled as competitor).

The test system is the same in series [2]. Description: competition with a labelled probe. The note with it: excess unlabeled probe; EMSA: 2 ug rE75, 5 ng biotin probe, 25 C, 20 min, kit binding buffer (Beyotime GS009; composition and pH not given); 6% acrylamide gel, 0.5x TBE; recombinant protein; protein details: 6xHis and pET32a vector tag (rTag); label: biotin (unlabeled as competitor).

The exact form of at least one protein or probe is not confirmed. For some assays here: At least one verdict was read from the data and is not stated in words by the source.

For the sequence “TGAAGGAAGAGGGGCAGTAAGTAAGTTGGGGCAGG (double strand) [Chi2 promoter E75-site probe, wild type]”, the binding result in series [1] and in series [2] was “binds” each time.
